Data reported in patent US20080242557A1, “System For Detecting Molecular Interactions” (CGK CO., LTD., priority 2004, published 2008).
Results are given in words; binding and its absence hold for the method and conditions named. Some results given as binding are weak or reduced against the parent protein; the word gives no strength.

Chains of the proteins cited; added tags and fusions are not shown. Lines headed by an entry give the natural chain unless they say otherwise; changes in a name come on top.
UniProt P25963: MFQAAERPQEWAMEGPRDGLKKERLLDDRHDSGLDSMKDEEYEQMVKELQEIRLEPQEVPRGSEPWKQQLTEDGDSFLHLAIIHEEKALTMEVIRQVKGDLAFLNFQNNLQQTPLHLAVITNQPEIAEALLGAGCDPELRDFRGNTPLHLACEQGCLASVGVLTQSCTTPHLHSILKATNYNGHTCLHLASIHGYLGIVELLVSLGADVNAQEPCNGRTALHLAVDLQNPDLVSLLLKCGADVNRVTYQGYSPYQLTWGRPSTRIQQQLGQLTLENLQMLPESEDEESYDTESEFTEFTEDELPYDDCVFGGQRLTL
UniProt Q04206: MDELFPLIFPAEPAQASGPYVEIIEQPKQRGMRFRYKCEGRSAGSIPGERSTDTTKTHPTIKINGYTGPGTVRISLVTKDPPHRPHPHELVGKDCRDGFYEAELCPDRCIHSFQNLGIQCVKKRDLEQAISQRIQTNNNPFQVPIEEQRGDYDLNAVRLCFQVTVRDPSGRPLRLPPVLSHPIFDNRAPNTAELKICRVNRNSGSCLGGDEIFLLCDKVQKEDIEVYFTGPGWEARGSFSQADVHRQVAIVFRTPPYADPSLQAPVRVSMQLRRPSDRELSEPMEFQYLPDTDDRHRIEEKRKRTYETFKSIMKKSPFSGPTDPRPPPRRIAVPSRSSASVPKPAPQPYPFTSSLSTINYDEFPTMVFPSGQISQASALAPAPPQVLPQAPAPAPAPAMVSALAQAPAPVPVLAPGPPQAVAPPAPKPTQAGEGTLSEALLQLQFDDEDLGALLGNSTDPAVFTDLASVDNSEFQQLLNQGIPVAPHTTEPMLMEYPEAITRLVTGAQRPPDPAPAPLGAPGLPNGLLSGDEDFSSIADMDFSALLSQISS

Experiments:
[1] = biological target: IκBα-ECFP-FKBP 12 fusion protein (without TNF-α treatment or with IKK inhibitor SC-514; not phosphorylated) (UniProt P25963); assay: co-translocation with FK506-coated magnetic nanoparticles in live HeLa cells, confocal microscopy
[2] = biological target: IκBα-ECFP-FKBP 12 fusion protein (without TNF-α treatment or with IKK inhibitor SC-514; not phosphorylated) (UniProt P25963); assay: co-translocation with FK506-coated magnetic nanoparticles in live HeLa cells, confocal microscopy; without TNF-α / with SC-514

binding [1]: binds
binding [2]: binds
Substance: EYFP-ReIA fusion protein (from UniProt Q04206 1-551)
